Some of the results follow.
compound: COC(=O)N[C@@H](C)CNc1nccc(-c2cn(C(C)C)nc2-c2cc(Cl)cc(NS(C)(=O)=O)c2F)n1 [encorafenib]; experiment: log2 fold change, soluble protein after heating vs DMSO (PISA); higher = thermal stabilisation; K562 lysate, 10 uM; active = over 0.2 and 3.5 SD of the protein, either way, in both replicates (recomputed)
Method in brief: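 Thermal stability, expressed as log-two fold change relative to solvent controls, is given from duplicates. Crude K562 extract in PBS pH 7.4 with 1 mM MgCl2, at 1 mg/mL protein, was treated with 10 μM compound for 30 min and heated in aliquots for 3 min across 48°C-58°C. After pooling, adjustment to 0.5% NP-40 at 4°C and centrifugation at 21,000xg for 90 min, supernatant protein was measured by TMTpro 16plex LC-MS/MS with channel sums equalised.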

Sequences of proteins named here, by UniProt entry; tags and fusion partners are left off. A change or cut given only in a name is not applied to a line headed by its entry.
UniProt Q9BV94: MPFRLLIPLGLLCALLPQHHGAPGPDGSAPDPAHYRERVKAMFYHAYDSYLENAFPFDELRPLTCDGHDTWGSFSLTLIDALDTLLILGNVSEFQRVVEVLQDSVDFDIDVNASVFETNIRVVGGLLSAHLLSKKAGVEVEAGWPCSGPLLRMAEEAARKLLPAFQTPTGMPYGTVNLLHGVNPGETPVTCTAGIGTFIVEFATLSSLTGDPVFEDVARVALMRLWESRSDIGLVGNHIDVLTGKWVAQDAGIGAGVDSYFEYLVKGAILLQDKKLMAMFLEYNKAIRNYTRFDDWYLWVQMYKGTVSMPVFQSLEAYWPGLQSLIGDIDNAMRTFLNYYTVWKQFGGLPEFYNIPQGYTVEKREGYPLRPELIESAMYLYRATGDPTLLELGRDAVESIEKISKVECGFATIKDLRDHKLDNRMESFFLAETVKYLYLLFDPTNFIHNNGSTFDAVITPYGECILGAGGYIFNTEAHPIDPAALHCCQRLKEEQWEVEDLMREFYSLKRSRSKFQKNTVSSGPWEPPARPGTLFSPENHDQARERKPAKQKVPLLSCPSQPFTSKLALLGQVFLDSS
UniProt Q96G04: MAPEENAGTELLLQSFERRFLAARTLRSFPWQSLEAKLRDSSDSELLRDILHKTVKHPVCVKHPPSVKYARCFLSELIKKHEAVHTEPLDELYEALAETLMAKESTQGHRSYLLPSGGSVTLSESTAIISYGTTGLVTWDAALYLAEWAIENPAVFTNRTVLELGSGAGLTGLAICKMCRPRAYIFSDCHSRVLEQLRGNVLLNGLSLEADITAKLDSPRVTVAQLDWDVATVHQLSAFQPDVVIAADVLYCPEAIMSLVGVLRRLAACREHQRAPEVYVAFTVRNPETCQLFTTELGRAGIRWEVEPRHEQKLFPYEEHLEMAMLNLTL
UniProt Q08426: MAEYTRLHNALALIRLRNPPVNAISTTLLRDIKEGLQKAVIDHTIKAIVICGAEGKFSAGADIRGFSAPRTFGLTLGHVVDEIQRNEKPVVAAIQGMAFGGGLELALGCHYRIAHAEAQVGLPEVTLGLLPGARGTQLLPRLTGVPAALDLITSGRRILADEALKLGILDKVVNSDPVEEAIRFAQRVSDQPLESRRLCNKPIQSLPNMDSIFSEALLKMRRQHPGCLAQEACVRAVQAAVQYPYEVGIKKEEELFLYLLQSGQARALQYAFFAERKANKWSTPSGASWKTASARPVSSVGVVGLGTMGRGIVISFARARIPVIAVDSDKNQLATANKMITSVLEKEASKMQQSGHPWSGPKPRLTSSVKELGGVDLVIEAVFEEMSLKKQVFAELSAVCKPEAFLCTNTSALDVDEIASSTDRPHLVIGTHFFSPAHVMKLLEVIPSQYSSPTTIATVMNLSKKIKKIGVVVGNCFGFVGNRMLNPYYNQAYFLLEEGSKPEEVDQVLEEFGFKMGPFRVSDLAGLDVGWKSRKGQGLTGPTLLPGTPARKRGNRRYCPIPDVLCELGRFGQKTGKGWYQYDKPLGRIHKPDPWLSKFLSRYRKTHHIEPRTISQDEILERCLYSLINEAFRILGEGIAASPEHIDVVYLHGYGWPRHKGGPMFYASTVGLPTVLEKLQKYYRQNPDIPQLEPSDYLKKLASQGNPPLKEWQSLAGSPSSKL
UniProt O00418: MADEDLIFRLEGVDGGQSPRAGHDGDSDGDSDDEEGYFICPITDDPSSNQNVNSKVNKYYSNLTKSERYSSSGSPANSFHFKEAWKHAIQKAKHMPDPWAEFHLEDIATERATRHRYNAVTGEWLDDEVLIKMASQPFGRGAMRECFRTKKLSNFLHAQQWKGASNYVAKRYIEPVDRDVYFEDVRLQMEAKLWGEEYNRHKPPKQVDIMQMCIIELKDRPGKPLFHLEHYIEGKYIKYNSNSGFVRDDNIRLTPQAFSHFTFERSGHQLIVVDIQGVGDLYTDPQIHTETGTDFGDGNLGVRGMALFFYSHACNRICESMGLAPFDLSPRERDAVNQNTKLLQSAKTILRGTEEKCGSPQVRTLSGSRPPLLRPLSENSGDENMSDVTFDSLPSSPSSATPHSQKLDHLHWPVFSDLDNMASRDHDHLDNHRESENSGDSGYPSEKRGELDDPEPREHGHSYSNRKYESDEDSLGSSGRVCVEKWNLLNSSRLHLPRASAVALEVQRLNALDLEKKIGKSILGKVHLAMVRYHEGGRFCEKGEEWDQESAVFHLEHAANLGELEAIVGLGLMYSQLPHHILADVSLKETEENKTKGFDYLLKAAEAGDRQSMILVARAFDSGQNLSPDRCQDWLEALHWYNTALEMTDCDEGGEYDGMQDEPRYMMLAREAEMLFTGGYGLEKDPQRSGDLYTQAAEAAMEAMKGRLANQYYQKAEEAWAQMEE
UniProt Q9Y6B2: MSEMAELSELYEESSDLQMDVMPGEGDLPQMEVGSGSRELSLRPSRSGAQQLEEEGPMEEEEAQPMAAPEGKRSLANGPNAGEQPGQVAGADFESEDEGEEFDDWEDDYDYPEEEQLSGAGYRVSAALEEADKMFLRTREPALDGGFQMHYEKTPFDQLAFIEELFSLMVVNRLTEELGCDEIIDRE
UniProt Q15075: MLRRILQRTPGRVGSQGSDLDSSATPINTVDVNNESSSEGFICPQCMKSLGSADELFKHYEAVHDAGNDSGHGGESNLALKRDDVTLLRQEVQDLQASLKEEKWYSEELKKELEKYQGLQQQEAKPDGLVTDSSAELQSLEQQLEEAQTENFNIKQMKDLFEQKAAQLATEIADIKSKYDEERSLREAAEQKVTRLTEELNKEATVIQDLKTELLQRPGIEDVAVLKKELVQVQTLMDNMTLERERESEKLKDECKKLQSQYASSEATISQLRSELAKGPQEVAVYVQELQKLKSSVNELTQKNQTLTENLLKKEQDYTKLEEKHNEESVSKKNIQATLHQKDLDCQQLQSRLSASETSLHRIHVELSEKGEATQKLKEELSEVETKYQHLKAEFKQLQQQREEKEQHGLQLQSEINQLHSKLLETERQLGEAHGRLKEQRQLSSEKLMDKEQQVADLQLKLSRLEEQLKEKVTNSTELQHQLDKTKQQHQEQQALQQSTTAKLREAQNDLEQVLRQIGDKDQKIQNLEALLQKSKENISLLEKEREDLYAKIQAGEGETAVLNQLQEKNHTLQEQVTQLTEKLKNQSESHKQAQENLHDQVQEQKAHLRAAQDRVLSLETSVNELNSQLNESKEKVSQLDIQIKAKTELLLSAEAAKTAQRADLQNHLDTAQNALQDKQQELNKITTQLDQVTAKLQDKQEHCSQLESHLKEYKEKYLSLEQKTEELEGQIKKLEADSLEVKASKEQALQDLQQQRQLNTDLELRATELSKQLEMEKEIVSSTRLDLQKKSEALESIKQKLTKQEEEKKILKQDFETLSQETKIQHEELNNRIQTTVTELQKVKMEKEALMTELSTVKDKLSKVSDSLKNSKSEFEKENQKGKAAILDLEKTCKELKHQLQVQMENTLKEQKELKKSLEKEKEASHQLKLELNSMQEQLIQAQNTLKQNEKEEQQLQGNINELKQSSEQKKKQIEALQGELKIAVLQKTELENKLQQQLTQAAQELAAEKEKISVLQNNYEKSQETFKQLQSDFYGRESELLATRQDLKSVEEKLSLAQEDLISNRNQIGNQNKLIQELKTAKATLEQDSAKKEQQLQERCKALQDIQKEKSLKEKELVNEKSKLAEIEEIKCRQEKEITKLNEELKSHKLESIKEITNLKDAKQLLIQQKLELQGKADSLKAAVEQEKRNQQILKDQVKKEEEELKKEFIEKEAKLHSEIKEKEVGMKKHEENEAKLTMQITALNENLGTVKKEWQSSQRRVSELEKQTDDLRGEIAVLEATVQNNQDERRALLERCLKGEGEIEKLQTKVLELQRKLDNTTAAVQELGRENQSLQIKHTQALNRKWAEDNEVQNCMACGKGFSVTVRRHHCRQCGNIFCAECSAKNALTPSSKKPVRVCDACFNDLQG
UniProt P98172: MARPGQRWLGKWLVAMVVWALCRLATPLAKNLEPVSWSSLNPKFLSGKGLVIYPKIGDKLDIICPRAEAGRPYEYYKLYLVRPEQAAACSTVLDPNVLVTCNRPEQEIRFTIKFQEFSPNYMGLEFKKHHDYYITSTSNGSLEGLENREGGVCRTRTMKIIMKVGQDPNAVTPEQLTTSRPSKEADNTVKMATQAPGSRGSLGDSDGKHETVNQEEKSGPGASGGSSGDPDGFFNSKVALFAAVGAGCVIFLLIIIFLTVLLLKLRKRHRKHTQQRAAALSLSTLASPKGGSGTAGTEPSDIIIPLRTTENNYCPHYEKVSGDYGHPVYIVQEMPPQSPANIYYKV
UniProt Q6P2E9: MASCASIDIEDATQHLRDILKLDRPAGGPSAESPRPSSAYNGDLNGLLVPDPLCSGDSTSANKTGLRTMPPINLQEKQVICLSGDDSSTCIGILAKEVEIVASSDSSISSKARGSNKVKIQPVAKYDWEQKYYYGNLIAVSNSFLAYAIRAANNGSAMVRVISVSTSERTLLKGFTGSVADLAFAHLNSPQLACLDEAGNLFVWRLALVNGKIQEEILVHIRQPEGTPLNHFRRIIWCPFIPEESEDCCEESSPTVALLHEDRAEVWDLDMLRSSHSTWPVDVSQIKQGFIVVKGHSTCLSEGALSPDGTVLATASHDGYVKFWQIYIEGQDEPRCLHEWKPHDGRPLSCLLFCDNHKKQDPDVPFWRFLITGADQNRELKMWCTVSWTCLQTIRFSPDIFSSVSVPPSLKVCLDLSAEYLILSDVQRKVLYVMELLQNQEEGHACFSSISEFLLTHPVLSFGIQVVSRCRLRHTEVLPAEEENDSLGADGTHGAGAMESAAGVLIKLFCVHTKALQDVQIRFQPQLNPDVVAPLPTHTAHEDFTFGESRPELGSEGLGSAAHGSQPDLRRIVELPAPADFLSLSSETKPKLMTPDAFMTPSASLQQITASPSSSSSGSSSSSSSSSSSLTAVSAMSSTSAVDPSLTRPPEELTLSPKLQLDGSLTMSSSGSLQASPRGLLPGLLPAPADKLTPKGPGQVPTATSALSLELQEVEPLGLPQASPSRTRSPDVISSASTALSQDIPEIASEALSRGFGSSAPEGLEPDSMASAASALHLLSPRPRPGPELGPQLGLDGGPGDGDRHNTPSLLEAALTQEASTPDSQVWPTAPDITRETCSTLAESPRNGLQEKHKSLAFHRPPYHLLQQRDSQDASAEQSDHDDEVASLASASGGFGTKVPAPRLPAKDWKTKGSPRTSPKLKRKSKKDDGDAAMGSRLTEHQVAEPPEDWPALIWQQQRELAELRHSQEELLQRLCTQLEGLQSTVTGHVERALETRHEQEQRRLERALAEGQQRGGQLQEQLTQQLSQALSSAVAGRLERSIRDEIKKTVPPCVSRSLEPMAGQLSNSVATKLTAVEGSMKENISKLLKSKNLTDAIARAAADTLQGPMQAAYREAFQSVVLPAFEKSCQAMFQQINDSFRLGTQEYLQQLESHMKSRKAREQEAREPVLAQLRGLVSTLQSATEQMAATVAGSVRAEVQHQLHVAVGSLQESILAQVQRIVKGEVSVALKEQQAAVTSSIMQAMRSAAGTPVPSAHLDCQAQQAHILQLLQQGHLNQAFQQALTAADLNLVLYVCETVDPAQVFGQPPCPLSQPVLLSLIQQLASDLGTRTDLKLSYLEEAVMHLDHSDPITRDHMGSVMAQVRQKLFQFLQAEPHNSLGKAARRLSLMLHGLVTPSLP
UniProt P26641, whole entry, looked up: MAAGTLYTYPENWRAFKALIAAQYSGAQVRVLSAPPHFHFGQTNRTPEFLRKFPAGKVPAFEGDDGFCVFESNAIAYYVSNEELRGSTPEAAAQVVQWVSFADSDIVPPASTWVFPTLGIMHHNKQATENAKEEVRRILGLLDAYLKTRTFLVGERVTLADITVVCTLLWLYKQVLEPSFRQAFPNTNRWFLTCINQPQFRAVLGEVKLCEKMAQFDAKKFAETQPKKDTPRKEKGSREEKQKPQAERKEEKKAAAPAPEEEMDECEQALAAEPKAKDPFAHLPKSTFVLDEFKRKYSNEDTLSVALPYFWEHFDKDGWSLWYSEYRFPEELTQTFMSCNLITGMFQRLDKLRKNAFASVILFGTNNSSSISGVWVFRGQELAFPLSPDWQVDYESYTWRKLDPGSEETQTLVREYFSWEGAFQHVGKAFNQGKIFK
UniProt Q96FN9: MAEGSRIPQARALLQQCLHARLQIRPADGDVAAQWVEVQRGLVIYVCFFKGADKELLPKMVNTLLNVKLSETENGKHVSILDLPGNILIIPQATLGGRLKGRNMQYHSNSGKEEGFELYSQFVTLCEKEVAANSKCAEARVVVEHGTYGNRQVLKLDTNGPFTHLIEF
UniProt O60869: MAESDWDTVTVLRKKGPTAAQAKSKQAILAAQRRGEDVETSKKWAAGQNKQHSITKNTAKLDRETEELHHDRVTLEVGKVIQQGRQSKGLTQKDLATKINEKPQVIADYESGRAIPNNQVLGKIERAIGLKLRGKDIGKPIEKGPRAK

log2 fold change, inactive:
DVL3 (UniProt Q92997) 0.143
DYNC2H1 isoform 2 (UniProt Q8NCM8) -0.062
ECHDC1 (UniProt Q9NTX5) 0.071
EDEM2 (UniProt Q9BV94) 0.027
EEF2KMT (UniProt Q96G04) -0.054
DTYMK (UniProt P23919) -0.061
EHHADH (UniProt Q08426) 0.035
EEF2K (UniProt O00418) 0.025
EED, A0A5F9ZI63 0.004
EID1 (UniProt Q9Y6B2) -0.057
EEA1 (UniProt Q15075) -0.007
EFCAB2 isoform 2 (UniProt Q5VUJ9) -0.027
EHBP1 isoform 2 (UniProt Q8NDI1) 0.023
EFNB1 (UniProt P98172) 0.004
DUSP3 (UniProt P51452) 0.014
EHMT1 (UniProt Q9H9B1) 0.033
DPY19L4 (UniProt Q7Z388) -0.008
EDC4 (UniProt Q6P2E9) 0.009
EEF1G isoform 2 (UniProt P26641) -0.027
DTD2 (UniProt Q96FN9) -0.115
EDF1 (UniProt O60869) -0.032
ECM1 isoform 4 (UniProt Q16610) 0.004
DYSF isoform 13 (UniProt O75923) -0.089

2 successive records from above:
log2 fold change, inactive:
EEF2KMT (UniProt Q96G04) -0.054
DTYMK (UniProt P23919) -0.061
